Reference: PubChem BioAssay AID602196 (INSERM, 2012)
The deposit covers about 23,000 reagents; below is a part drawn at random. 455 of all reagents (2%) were called active. 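Active includes both protection and sensitisation; some change values fall well beyond the stated -50 to +50 range.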 Not all columns of the deposit are shown. Not given: the amount of reagent.

Purpose: 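Modifiers of cisplatin sensitivity in A549 cells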
Cell system: human A549 lung cancer cells
Reagent: siRNA pair against human genes
Duration: 48 h transfection before cisplatin; time from cisplatin to read-out not stated
Treatment: cisplatin at a dose killing half of control-siRNA cells; exact dose and duration not given
Read-out: 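Cisplatin cell death as a shift from the 50% death seen with control siRNA; siRNAs toxic or growth-blocking alone scored 0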
Direction: two-siRNA summed score (-2 to +2): higher = both siRNAs protect from cisplatin killing; -2 means both sensitise
Active means: 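siRNAs harmful alone (LDH or WST-1) get 0; others get +1 for less and -1 for more cisplatin killing; genes are active when the two siRNAs give the same sign, summing to ±2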
Calls: active = both siRNAs shift cisplatin killing the same way; inactive = no consistent shift, or siRNA harmful alone

target	two-siRNA summed score (-2 to +2)	call
FZD6 (frizzled class receptor 6)	0	inactive
LOC388587	0	inactive
LOC442495	0	inactive
STPG3 (sperm-tail PG-rich repeat containing 3)	0	inactive
SPOP (speckle type BTB/POZ protein)	0	inactive
ITIH5 (inter-alpha-trypsin inhibitor heavy chain 5)	0	inactive
LOC139604	1	inactive
ARHGEF38 (Rho guanine nucleotide exchange factor 38)	0	inactive
VPS29 (VPS29 retromer complex component)	0	inactive
LOC375748	1	inactive
CPA2 (carboxypeptidase A2)	-1	inactive
GMPPB (GDP-mannose pyrophosphorylase B)	0	inactive
SOAT1 (sterol O-acyltransferase 1)	0	inactive
FANK1 (fibronectin type III and ankyrin repeat domains 1)	0	inactive
SIN3A (SIN3 transcription regulator family member A)	0	inactive
CD4 (CD4 molecule)	0	inactive
KLF1 (KLF transcription factor 1)	0	inactive
LOC442120	0	inactive
HTRA4 (HtrA serine peptidase 4)	1	inactive
TMED3 (transmembrane p24 trafficking protein 3)	0	inactive
LOC401029	0	inactive
EMB (embigin)	0	inactive
LOC401188 (retired record)	0	inactive
TMEM132E (transmembrane protein 132E)	1	inactive
THUMPD2 (THUMP domain 2 tRNA and snRNA guanosine methyltransferase)	0	inactive
LINC00955 (long independently transcribed non-coding RNA 955)	0	inactive
RANBP2 (RAN binding protein 2)	-1	inactive
WNT3A (Wnt family member 3A)	0	inactive
LOC388568	0	inactive
CPNE6 (copine 6)	-1	inactive
LOC440070	0	inactive
FLJ36157	0	inactive
C8orf33 (chromosome 8 open reading frame 33)	0	inactive
GAS8-AS1 (GAS8 antisense RNA 1)	-2	active
TMEM183AP3 (TMEM183A pseudogene 3)	1	inactive
ANGPTL7 (angiopoietin like 7)	0	inactive
FYN (FYN proto-oncogene, Src family tyrosine kinase)	1	inactive
ZNF280D (zinc finger protein 280D)	-1	inactive
DEFB103B (defensin beta 103B)	0	inactive
PCCB (propionyl-CoA carboxylase subunit beta)	0	inactive
SMAD1 (SMAD family member 1)	0	inactive
TTC39C (tetratricopeptide repeat domain 39C)	0	inactive
GMPR2 (guanosine monophosphate reductase 2)	-1	inactive
MRI1 (methylthioribose-1-phosphate isomerase 1)	0	inactive
IGHV4OR15-8 (immunoglobulin heavy variable 4/OR15-8 (non-functional))	1	inactive
RASD1 (ras related dexamethasone induced 1)	0	inactive
LINC02898 (long independently transcribed non-coding RNA 2898)	1	inactive

Ordered by “two-siRNA summed score (-2 to +2)” (highest first): 10 of the entries above.
target	two-siRNA summed score (-2 to +2)	call
TMEM183AP3 (TMEM183A pseudogene 3)	1	inactive
FYN (FYN proto-oncogene, Src family tyrosine kinase)	1	inactive
FLJ36157	0	inactive
C8orf33 (chromosome 8 open reading frame 33)	0	inactive
ANGPTL7 (angiopoietin like 7)	0	inactive
DEFB103B (defensin beta 103B)	0	inactive
PCCB (propionyl-CoA carboxylase subunit beta)	0	inactive
SMAD1 (SMAD family member 1)	0	inactive
ZNF280D (zinc finger protein 280D)	-1	inactive
GAS8-AS1 (GAS8 antisense RNA 1)	-2	active

Next records follow:
target	two-siRNA summed score (-2 to +2)	call
SCN8A (sodium voltage-gated channel alpha subunit 8)	-1	inactive
B3GNT6	1	inactive
ZBTB47 (zinc finger and BTB domain containing 47)	0	inactive
TMEM200B (transmembrane protein 200B)	1	inactive
SLC30A6	0	inactive
ANP32A (acidic nuclear phosphoprotein 32 family member A)	0	inactive
RPN1 (ribophorin I)	1	inactive
KRTAP1-3 (keratin associated protein 1-3)	0	inactive
ABCD4 (ATP binding cassette subfamily D member 4)	0	inactive
KHSRP (KH-type splicing regulatory protein)	-2	active
LOC400046	0	inactive
OR52L1 (olfactory receptor family 52 subfamily L member 1)	2	active
ULK2 (unc-51 like autophagy activating kinase 2)	0	inactive
HSD17B12 (hydroxysteroid 17-beta dehydrogenase 12)	0	inactive
LOC440789	1	inactive
LOC389318	0	inactive
NTF3 (neurotrophin 3)	1	inactive
RBM26 (RNA binding motif protein 26)	1	inactive
PGBDF (plakoglobin binding and degradation factor)	0	inactive
SPINK14 (serine peptidase inhibitor Kazal type 14 (putative))	1	inactive
NCAPH2 (non-SMC condensin II complex subunit H2)	0	inactive
RRAS2 (RAS related 2)	-1	inactive
NOVA1 (NOVA alternative splicing regulator 1)	1	inactive
MRPS30 (mitochondrial ribosomal protein S30)	1	inactive
ICA1 (islet cell autoantigen 1)	0	inactive
APOBEC4	1	inactive
